Laboratory results reported in article PMC12859043.
Results are given in words; binding and its absence hold for the method and conditions named. In cells and extracts the contact can be indirect. Some entries that bind do so weakly or less than the wild type. Sequences can lack the tags named with a protein.

The chains behind the UniProt entries cited, without tags or fusion partners. Residues count along the entry.
UniProt Q68DV7, residues 24-783: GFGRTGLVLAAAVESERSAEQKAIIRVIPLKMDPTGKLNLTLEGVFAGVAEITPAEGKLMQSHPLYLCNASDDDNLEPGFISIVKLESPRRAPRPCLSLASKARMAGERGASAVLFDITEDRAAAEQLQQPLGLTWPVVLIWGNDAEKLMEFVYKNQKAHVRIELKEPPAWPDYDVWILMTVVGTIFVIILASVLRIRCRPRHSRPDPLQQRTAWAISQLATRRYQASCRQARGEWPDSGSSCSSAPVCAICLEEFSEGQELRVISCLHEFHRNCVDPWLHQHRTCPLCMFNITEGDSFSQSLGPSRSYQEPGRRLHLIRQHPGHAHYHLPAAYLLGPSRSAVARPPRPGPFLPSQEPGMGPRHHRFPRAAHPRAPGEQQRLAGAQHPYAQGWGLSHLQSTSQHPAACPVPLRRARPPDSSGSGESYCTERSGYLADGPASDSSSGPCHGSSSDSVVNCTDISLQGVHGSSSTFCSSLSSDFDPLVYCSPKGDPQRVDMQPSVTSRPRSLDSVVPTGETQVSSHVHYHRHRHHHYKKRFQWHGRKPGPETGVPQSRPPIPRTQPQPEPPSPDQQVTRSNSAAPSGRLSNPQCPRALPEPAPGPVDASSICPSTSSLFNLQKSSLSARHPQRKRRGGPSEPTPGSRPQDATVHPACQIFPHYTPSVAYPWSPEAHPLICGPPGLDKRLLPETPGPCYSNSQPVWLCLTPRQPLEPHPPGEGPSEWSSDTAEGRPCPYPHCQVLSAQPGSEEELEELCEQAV

How the values were obtained:
[1] = molecular target: T1, V5-tagged PRICKLE1 (human) (UniProt Q96MT3); experiment: co-IP; anti-V5 IP of overexpressed V5-PRICKLE1-3 from HEK293 lysate (50 mM Tris pH 7.6, 200 mM NaCl, 1 mM EDTA, 0.5% NP40); Western blot for VANGL1-myc, VANGL2-HA or endogenous DVL2/DVL3
T1 sequence: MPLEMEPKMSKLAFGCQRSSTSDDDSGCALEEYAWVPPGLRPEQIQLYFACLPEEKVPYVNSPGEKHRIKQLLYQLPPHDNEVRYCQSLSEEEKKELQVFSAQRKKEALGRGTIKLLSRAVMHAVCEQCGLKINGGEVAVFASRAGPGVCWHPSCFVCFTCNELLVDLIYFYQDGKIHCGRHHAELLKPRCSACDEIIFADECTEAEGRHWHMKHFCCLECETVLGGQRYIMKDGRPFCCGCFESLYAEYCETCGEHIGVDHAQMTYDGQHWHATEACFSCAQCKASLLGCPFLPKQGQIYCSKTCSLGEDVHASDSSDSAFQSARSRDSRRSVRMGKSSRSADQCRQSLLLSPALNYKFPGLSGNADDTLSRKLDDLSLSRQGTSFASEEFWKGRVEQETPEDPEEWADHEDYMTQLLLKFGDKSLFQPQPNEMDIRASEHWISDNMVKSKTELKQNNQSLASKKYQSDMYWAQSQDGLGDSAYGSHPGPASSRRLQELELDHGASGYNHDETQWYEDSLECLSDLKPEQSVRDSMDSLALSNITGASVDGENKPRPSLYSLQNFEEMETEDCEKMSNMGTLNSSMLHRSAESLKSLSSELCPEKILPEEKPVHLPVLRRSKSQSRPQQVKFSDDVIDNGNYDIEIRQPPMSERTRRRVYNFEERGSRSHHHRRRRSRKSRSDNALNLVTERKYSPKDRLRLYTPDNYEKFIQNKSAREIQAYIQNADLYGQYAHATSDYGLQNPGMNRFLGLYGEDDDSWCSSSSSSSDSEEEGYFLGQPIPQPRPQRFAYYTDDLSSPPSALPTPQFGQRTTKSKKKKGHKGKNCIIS

[2] = molecular target: T2, V5-tagged PRICKLE2 (human) (UniProt Q7Z3G6); experiment: as above
T2 sequence: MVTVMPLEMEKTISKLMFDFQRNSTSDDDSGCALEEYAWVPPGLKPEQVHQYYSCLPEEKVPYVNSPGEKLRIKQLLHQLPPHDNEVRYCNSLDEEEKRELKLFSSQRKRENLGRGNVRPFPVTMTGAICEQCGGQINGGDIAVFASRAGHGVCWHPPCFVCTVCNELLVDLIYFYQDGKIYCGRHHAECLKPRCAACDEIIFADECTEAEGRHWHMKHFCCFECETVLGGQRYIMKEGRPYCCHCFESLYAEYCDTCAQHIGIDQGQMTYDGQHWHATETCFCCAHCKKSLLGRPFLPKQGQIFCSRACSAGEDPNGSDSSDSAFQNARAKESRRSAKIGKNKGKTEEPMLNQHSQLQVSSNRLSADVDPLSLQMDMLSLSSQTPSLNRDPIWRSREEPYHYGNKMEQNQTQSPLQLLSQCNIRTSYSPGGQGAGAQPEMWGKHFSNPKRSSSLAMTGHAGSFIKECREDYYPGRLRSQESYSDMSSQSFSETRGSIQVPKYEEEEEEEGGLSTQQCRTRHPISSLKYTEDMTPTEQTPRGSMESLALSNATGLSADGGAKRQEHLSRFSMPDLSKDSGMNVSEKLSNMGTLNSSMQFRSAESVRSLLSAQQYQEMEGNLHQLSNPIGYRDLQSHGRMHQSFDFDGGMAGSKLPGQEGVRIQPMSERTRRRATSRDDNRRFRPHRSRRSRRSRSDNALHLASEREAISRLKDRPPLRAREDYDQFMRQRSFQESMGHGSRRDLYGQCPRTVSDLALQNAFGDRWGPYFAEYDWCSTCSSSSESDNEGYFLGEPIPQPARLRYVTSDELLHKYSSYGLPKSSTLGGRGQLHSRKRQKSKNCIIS

[3] = molecular target: T3, V5-tagged PRICKLE3 (human) (UniProt O43900); experiment: as above
T3 sequence: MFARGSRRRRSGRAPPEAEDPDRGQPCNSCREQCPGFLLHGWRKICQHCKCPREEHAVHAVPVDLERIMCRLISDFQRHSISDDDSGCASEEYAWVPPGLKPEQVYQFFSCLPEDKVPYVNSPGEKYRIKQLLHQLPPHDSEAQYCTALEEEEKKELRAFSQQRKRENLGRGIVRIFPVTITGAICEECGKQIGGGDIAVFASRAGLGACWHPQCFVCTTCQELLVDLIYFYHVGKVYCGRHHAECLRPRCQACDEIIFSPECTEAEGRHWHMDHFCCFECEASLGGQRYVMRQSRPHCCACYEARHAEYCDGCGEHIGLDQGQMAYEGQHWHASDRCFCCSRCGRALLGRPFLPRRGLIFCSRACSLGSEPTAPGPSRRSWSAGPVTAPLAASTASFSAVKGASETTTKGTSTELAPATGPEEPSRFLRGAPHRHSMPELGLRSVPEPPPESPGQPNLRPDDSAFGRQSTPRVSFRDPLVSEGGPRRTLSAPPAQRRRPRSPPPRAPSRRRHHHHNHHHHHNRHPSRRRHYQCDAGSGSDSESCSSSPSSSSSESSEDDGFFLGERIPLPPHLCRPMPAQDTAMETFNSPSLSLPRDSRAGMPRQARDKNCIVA

[4] = molecular target: T4, HA-tagged PRICKLE1 (human) (UniProt Q96MT3); experiment: co-IP; anti-HA IP (IgG control) from HEK T-REx 293 PRICKLE3 or PRICKLE1 TetON cells induced overnight with doxycycline; Western blot for endogenous proteins
T4 sequence: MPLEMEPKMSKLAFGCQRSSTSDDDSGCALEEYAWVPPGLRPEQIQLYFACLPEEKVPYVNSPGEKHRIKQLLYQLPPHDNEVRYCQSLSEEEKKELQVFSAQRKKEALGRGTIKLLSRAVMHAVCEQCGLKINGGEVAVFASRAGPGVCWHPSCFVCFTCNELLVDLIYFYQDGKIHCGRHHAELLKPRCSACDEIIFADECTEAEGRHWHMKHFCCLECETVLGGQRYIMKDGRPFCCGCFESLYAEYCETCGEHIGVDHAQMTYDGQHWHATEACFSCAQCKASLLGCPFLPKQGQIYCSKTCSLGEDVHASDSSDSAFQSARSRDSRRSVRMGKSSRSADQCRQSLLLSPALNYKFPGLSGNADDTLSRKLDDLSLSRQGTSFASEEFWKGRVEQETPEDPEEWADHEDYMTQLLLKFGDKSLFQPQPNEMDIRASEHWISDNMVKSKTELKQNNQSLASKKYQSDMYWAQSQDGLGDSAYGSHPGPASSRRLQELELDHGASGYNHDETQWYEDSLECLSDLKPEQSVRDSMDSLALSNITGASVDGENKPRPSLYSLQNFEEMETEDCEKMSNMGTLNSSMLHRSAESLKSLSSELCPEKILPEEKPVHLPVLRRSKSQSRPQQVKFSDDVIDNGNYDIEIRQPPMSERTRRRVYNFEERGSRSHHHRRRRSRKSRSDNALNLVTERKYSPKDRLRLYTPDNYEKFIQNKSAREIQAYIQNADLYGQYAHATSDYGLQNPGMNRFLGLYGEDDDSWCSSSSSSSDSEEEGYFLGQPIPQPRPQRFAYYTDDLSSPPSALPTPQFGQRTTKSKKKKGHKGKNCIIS

[5] = molecular target: T5, HA-tagged PRICKLE3 (human) (UniProt O43900); experiment: as above
T5 sequence: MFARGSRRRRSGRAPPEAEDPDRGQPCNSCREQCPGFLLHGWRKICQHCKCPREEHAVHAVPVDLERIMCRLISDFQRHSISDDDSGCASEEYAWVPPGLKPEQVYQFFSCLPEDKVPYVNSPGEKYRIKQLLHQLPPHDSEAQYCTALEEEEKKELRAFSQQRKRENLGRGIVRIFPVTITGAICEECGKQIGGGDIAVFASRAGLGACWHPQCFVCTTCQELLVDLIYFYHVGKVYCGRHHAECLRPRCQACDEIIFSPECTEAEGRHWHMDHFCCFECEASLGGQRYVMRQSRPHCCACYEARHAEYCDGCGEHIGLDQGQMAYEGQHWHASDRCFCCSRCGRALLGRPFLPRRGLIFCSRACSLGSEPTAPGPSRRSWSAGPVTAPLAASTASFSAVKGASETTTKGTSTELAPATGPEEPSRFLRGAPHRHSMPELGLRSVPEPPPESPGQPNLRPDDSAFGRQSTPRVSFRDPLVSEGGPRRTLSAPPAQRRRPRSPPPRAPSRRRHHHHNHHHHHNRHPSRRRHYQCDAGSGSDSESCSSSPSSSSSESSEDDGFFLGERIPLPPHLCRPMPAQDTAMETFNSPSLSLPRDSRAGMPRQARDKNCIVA

RNF43-FLAG (human) [6] = molecular target: RNF43-FLAG (human) (UniProt Q68DV7); experiment: co-IP; HA-PRICKLE3 and FLAG-tagged RNF43 co-expressed in HEK293 wild-type cells (no VANGL2 transfected); IP with anti-HA or anti-FLAG; Western blot
RNF43-FLAG (human) [7] = molecular target: RNF43-FLAG (human) (UniProt Q68DV7); experiment: co-IP; HEK T-REx 293 PRICKLE3 TetON cells transfected with RNF43-FLAG and EGFP-VANGL2, with or without overnight doxycycline induction of HA-PRICKLE3; Western blot, endogenous CK1ε quantified by densitometry

B1: VANGL1-myc (protein, UniProt Q8TAA9 1-524)
chain: MDTESTYSGYSYYSSHSKKSHRQGERTRERHKSPRNKDGRGSEKSVTIQPPTGEPLLGNDSTRTEEVQDDNWGETTTAITGTSEHSISQEDIARISKDMEDSVGLDCKRYLGLTVASFLGLLVFLTPIAFILLPPILWRDELEPCGTICEGLFISMAFKLLILLIGTWALFFRKRRADMPRVFVFRALLLVLIFLFVVSYWLFYGVRILDSRDRNYQGIVQYAVSLVDALLFIHYLAIVLLELRQLQPMFTLQVVRSTDGESRFYSLGHLSIQRAALVVLENYYKDFTIYNPNLLTASKFRAAKHMAGLKVYNVDGPSNNATGQSRAMIAAAARRRDSSHNELYYEEAEHERRVKKRKARLVVAVEEAFIHIQRLQAEEQQKAPGEVMDPREAAQAIFPSMARALQKYLRITRQQNYHSMESILQHLAFCITNGMTPKAFLERYLSAGPTLQYDKDRWLSTQWRLVSDEAVTNGLRDGIVFVLKCLDFSLVVNVKKIPFIILSEEFIDPKSHKFVLRLQSETSV
**Q.** How did the binding [1] turn out when B1 was run?
**A.** binds

**Q.** What about the binding [2] of the same binder?
**A.** binds

**Q.** What about the binding [3] of the same binder?
**A.** binds

B2: VANGL1 (endogenous) (protein, UniProt Q8TAA9 1-524)
chain: MDTESTYSGYSYYSSHSKKSHRQGERTRERHKSPRNKDGRGSEKSVTIQPPTGEPLLGNDSTRTEEVQDDNWGETTTAITGTSEHSISQEDIARISKDMEDSVGLDCKRYLGLTVASFLGLLVFLTPIAFILLPPILWRDELEPCGTICEGLFISMAFKLLILLIGTWALFFRKRRADMPRVFVFRALLLVLIFLFVVSYWLFYGVRILDSRDRNYQGIVQYAVSLVDALLFIHYLAIVLLELRQLQPMFTLQVVRSTDGESRFYSLGHLSIQRAALVVLENYYKDFTIYNPNLLTASKFRAAKHMAGLKVYNVDGPSNNATGQSRAMIAAAARRRDSSHNELYYEEAEHERRVKKRKARLVVAVEEAFIHIQRLQAEEQQKAPGEVMDPREAAQAIFPSMARALQKYLRITRQQNYHSMESILQHLAFCITNGMTPKAFLERYLSAGPTLQYDKDRWLSTQWRLVSDEAVTNGLRDGIVFVLKCLDFSLVVNVKKIPFIILSEEFIDPKSHKFVLRLQSETSV
**Q.** Which results are given for B2?
**A.** binding [4]: binds; binding [5]: binds

B3: HA-tagged PRICKLE3 (protein, UniProt O43900 1-615)
chain: MFARGSRRRRSGRAPPEAEDPDRGQPCNSCREQCPGFLLHGWRKICQHCKCPREEHAVHAVPVDLERIMCRLISDFQRHSISDDDSGCASEEYAWVPPGLKPEQVYQFFSCLPEDKVPYVNSPGEKYRIKQLLHQLPPHDSEAQYCTALEEEEKKELRAFSQQRKRENLGRGIVRIFPVTITGAICEECGKQIGGGDIAVFASRAGLGACWHPQCFVCTTCQELLVDLIYFYHVGKVYCGRHHAECLRPRCQACDEIIFSPECTEAEGRHWHMDHFCCFECEASLGGQRYVMRQSRPHCCACYEARHAEYCDGCGEHIGLDQGQMAYEGQHWHASDRCFCCSRCGRALLGRPFLPRRGLIFCSRACSLGSEPTAPGPSRRSWSAGPVTAPLAASTASFSAVKGASETTTKGTSTELAPATGPEEPSRFLRGAPHRHSMPELGLRSVPEPPPESPGQPNLRPDDSAFGRQSTPRVSFRDPLVSEGGPRRTLSAPPAQRRRPRSPPPRAPSRRRHHHHNHHHHHNRHPSRRRHYQCDAGSGSDSESCSSSPSSSSSESSEDDGFFLGERIPLPPHLCRPMPAQDTAMETFNSPSLSLPRDSRAGMPRQARDKNCIVA
**Q.** Which results are given for B3?
**A.** binding (RNF43-FLAG (human) [6]): binds; binding (RNF43-FLAG (human) [7]): binds
